According to PubChem BioAssay AID1487 (National Center for Advancing Translational Sciences (NCATS), 2009):
The list shows a part of the results. Further columns of the screen follow, without active or inactive calls. The list favours compounds with an active or inconclusive main result. The note in brackets gives the kind of curve behind each potency; many fits are weak.

Assay: qHTS Assay for Modulators of Lamin A Splicing
Settings: HeLa LMNA splicing GFP/RFP minigene ratio, 48 h
Procedure, shortened: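 S3 HeLa stable clones carrying a lamin A-EGFP splicing minigene plus DsRed2 were seeded at 600 cells/well in Opti-MEM with 2% FBS, pin-dosed and incubated 48 h at 37°C. Acumen cytometry (488 nm) gave the GFP/RFP total-intensity ratio.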

[1] = measured here: RFP viability control channel
[2] = measured here: GFP splicing reporter channel

| Structure (SMILES) | AC50 [1] | AC50 [2] |
| --- | --- | --- |
| CC(Oc1ccccc1)C(=O)N/N=C/c1ccccn1 (stereo not given) | 7.08 µM [falling, partial curve] |  |
| C/C(=N/NC(=O)c1ccc(Br)o1)c1ccc(C)o1 | 0.126 µM [rising, full curve, poor fit] |  |
| Cc1ccc(C(=O)c2ccc(N3CCN(C)CC3)c([N+](=O)[O-])c2)cc1 | 12.6 µM [rising, single point] |  |
| COc1ccc(Cc2noc(CN(C)CCN3CCc4ccccc4C3)n2)cc1OC | 0.0141 µM [falling, full curve, poor fit] |  |
| Cc1ccc(-c2c(C(=O)N(C)Cc3ccccc3)oc(=O)c3ccccc23)cc1 |  | 15.8 µM [rising, single point] |
| COc1ccc(C(=O)c2c(C(F)(F)F)oc3c2C(=O)c2ccccc2C3=O)cc1OC | 4.47 µM [falling, full curve] | 3.55 µM [falling, full curve] |
| O=c1cc(-c2cccc(F)c2)[nH]c2ccccc12 | 3.55 µM [rising, partial curve] | 5.62 µM [rising, single point] |
| Cc1oc(C(C)(C)C)cc1C(=O)Nc1ccc2c(c1)OCCO2 | 15.8 µM [rising, partial curve] | 12.6 µM [rising, partial curve] |
| CC(C)(C)Nc1nc2nonc2nc1NC(C)(C)C | 31.6 µM [rising, single point] |  |
| CC(C)NS(=O)(=O)c1ccc(NC(=O)C(C)Oc2ccc(C(=O)c3ccccc3)cc2)cc1 (stereo not given) | 35.5 µM [falling, single point] | 31.6 µM [falling, single point] |
| O=C(COC(=O)c1cc[n+]([O-])cc1)Nc1cccc(Cl)c1Cl |  | 0.00447 µM [rising, full curve, poor fit] |
| Cc1cc(NO)c(C(C)C)cc1N=O | 25.1 µM [rising, single point] | 14.1 µM [rising, single point] |
| COc1ccc(NC(=O)C2CCCN(c3c4c(nc5ncnn35)CCC4)C2)cc1OC (stereo not given) | 15.8 µM [rising, single point] | 14.1 µM [rising, single point] |
| Cc1ccc(S(=O)(=O)c2c(C)nn(C(C)(C)C)c2OC(=O)C2CCCC2)cc1 | 35.5 µM [falling, single point] |  |
| CSc1cccc(NC(=O)C2CCCN(S(=O)(=O)c3ccc4c(c3)CCCN4C(C)=O)C2)c1 (stereo not given) | 22.4 µM [falling, single point] | 11.2 µM [falling, partial curve] |
| Cc1ccc(C(=O)Cn2c(C(=O)/C=C/c3ccccc3)nc3ccccc32)cc1 | 14.1 µM [falling, partial curve] | 15.8 µM [falling, partial curve] |
| Cc1cc(C(=O)OCC(=O)Nc2ccccc2)c(C)o1 | 35.5 µM [falling, single point] | 35.5 µM [falling, single point] |
| COC(=O)c1ccccc1NC(=O)/C=C/c1cc(OC)c(OC)c(OC)c1 | 25.1 µM [rising, single point] |  |

| Structure (SMILES) | AC50 [1] | AC50 [2] |
| --- | --- | --- |
| CC(CN1CCOCC1)C(=O)c1ccccc1 (stereo not given) | 31.6 µM [rising, single point] |  |
| COc1ccc2nccc(C(=O)O)c2c1 | 14.1 µM [falling, single point] |  |
| Cc1ccc2cc3cc(C(=O)NCCCN4CCc5ccccc5C4)oc3nc2c1 | 11.2 µM [rising, single point] |  |
| Cc1ccccc1Nc1ccc(S(=O)(=O)N2CCOCC2)cc1[N+](=O)[O-] | 35.5 µM [rising, single point] |  |
| COc1cccc(/C=N/Nc2ncnc(Cl)c2N)c1O | 31.6 µM [falling, single point] | 35.5 µM [falling, single point] |
| Cc1cc(NC(=O)CSCC(=O)N(c2cccc(Cl)c2)C(C(=O)NC2CCCCC2)c2ccc(O)c(O)c2)no1 (stereo not given) | 28.2 µM [rising, single point] |  |
| CC1(C)CC(=O)C=C(NCCCNC2CCCCC2)C1 | 6.31 µM [rising, single point] |  |
| CN(C)c1nc(-c2ccccn2)nnc1-c1ccccc1 | 2.82 µM [rising, full curve] | 2.51 µM [rising, single point] |
| COc1ccc(/C=C/C(=O)OCC(=O)Nc2ccc(Cl)cn2)cc1 | 0.708 µM [falling, partial curve, poor fit] |  |
| N#Cc1cc2c(nc1SCc1nc3ccccc3[nH]1)CCC2 | 0.501 µM [rising, partial curve, poor fit] |  |
| CCSc1nc(-c2cccnc2)ccc1C#N | 0.158 µM [rising, full curve] | 2.82 µM [rising, partial curve, poor fit] |
| COc1ccc(/C=N/NC(=O)c2cc(-c3ccccc3OC(C)C)nc3ccccc23)cc1CN1CCOCC1 | 15.8 µM [rising, single point] |  |
| c1ccc(-c2cc(-c3nnc4n3N=C(c3ccc5ccccc5c3)CS4)[nH]n2)cc1 |  | 35.5 µM [falling, single point] |
| Cc1cc(C)c(C#N)c(N2CCN(CCOc3ccc(Cl)cc3)CC2)n1 | 25.1 µM [rising, single point] | 20 µM [rising, partial curve] |
| O=C1NS(=O)(=O)c2ccccc21 | 0.00562 µM [rising, full curve, poor fit] |  |
| COCCOC(=O)c1[nH]c2c(c1C)C(=O)CC(c1ccccc1)C2 (stereo not given) | 1 µM [rising, full curve] |  |
| NS(=O)(=O)c1cc2c(cc1Cl)NC(C1CC3C=CC1C3)NS2(=O)=O (stereo not given) | 8.91 µM [falling, partial curve, poor fit] | 15.8 µM [falling, partial curve, poor fit] |
| CN(CCC#N)c1ncnc2scc(-c3ccccc3)c12 | 15.8 µM [rising, single point] |  |

Full records, looked up by structure:
COc1ccc2nccc(C(=O)O)c2c1 in the list: AC50 [1]: 14.1 µM [falling, single point]
CN(CCC#N)c1ncnc2scc(-c3ccccc3)c12 in the list: AC50 [1]: 15.8 µM [rising, single point]
